# Source: PMC9319246
# Chains of the proteins cited; added tags and fusions are not shown.
# UniProt Q9UG01: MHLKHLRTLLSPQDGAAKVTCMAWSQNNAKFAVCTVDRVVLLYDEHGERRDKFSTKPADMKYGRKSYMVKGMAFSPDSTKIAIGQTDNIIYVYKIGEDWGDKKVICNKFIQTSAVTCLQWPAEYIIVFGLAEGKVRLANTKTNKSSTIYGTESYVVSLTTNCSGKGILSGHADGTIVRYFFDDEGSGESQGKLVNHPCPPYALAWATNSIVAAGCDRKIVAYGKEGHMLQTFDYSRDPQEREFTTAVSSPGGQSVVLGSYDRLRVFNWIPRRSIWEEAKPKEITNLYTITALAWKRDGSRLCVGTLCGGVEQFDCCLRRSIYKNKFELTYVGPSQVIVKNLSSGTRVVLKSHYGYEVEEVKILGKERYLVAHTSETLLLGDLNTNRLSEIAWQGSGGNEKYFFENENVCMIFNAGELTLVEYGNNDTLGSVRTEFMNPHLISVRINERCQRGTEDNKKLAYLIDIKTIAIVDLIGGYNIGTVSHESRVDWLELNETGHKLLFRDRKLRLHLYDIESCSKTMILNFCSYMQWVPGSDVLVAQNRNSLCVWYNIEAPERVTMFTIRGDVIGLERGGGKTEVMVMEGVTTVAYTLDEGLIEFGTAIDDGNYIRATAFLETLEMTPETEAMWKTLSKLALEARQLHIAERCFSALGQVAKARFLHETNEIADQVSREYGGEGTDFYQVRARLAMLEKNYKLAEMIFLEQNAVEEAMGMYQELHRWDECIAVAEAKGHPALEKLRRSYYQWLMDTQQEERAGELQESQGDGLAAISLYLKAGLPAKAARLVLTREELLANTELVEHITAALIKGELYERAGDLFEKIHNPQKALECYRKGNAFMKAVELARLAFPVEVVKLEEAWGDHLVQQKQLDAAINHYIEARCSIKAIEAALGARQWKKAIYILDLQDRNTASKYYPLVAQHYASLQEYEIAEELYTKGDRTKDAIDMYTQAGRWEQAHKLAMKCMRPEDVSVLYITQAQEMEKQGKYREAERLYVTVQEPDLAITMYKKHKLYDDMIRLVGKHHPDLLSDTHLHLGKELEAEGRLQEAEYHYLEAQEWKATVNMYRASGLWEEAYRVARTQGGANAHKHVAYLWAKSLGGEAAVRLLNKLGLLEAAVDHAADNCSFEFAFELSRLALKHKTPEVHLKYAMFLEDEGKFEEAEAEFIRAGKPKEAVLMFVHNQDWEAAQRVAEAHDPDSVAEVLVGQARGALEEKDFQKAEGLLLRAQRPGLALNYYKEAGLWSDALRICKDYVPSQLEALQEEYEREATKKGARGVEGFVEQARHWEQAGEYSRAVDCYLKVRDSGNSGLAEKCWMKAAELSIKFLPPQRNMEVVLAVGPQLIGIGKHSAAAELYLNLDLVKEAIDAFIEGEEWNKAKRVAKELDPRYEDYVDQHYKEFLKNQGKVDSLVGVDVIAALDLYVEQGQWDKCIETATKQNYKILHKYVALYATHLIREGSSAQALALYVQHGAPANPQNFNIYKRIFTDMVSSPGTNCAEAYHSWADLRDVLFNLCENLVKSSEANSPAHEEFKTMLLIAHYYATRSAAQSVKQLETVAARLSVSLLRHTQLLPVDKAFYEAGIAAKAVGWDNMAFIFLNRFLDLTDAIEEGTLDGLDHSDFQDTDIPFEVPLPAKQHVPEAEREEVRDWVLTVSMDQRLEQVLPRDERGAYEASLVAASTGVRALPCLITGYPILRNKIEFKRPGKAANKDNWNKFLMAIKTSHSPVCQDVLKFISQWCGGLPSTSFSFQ
# These are yes or no findings as the source states them, for the method shown. In cells and extracts the contact can be indirect. These calls come from enrichment with a bait or labelling near it, and not all partners need be listed. Where a sequence is shown, tags or fusion partners need not be part of it.
# T1: Strep/FLAG-tagged LCA5 (UniProt Q86VQ0)
# T1 sequence: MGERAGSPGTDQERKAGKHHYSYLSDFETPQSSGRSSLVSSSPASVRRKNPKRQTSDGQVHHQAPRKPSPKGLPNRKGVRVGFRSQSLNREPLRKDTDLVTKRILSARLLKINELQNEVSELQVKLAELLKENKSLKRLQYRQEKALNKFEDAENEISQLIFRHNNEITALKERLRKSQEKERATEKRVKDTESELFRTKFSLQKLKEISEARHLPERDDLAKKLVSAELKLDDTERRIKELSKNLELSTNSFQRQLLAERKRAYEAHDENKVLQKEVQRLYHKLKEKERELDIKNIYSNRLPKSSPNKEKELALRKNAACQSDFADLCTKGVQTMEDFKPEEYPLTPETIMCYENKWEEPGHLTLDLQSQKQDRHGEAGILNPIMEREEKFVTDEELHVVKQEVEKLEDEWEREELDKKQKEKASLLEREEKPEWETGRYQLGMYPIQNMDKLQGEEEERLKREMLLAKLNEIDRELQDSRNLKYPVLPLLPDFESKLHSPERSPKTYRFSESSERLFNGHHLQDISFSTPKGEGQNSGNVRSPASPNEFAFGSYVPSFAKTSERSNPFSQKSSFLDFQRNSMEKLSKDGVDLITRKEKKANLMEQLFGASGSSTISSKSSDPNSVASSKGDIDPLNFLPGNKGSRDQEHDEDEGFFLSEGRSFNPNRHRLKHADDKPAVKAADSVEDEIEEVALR
# B1: IFT74 (protein, UniProt Q96LB3 1-600)
# chain: MASNHKSSAARPVSRGGVGLTGRPPSGIRPLSGNIRVATAMPPGTARPGSRGCPIGTGGVLSSQIKVAHRPVTQQGLTGMKTGTKGPQRQILDKSYYLGLLRSKISELTTEVNKLQKGIEMYNQENSVYLSYEKRAETLAVEIKELQGQLADYNMLVDKLNTNTEMEEVMNDYNMLKAQNDRETQSLDVIFTERQAKEKQIRSVEEEIEQEKQATDDIIKNMSFENQVKYLEMKTTNEKLLQELDTLQQQLDSQNMKKESLEAEIAHSQVKQEAVLLHEKLYELESHRDQMIAEDKSIGSPMEEREKLLKQIKDDNQEIASMERQLTDTKEKINQFIEEIRQLDMDLEEHQGEMNQKYKELKKREEHMDTFIETFEETKNQELKRKAQIEANIVALLEHCSRNINRIEQISSITNQELKMMQDDLNFKSTEVQKSQSTAQNLTSDIQRLQLDLQKMELLESKMTEEQHSLKSKIKQMTTDLEIYNDLPALKSSGEEKIKKLHQERMILSTHRNAFKKIMEKQNIEYEALKTQLQENETHSQLTNLERKWQHLEQNNFAMKEFIATKSQESDYQPIKKNVTKQIAEYNKTIVDALHSTSGN
# B2: IFT57 (protein, UniProt Q9NWB7 1-429)
# chain: MTAALAVVTTSGLEDGVPRSRGEGTGEVVLERGPGAAYHMFVVMEDLVEKLKLLRYEEEFLRKSNLKAPSRHYFALPTNPGEQFYMFCTLAAWLINKAGRPFEQPQEYDDPNATISNILSELRSFGRTADFPPSKLKSGYGEHVCYVLDCFAEEALKYIGFTWKRPIYPVEELEEESVAEDDAELTLNKVDEEFVEEETDNEENFIDLNVLKAQTYHLDMNETAKQEDILESTTDAAEWSLEVERVLPQLKVTIRTDNKDWRIHVDQMHQHRSGIESALKETKGFLDKLHNEITRTLEKISSREKYINNQLENLVQEYRAAQAQLSEAKERYQQGNGGVTERTRLLSEVMEELEKVKQEMEEKGSSMTDGAPLVKIKQSLTKLKQETVEMDIRIGIVEHTLLQSKLKEKSNMTRNMHATVIPEPATGFY
# B3: IFT27 (protein, UniProt Q9BW83 1-186)
# chain: MVKLAAKCILAGDPAVGKTALAQIFRSDGAHFQKSYTLTTGMDLVVKTVPVPDTGDSVELFIFDSAGKELFSEMLDKLWESPNVLCLVYDVTNEESFNNCSKWLEKARSQAPGISLPGVLVGNKTDLAGRRAVDSAEARAWALGQGLECFETSVKEMENFEAPFHCLAKQFHQLYREKVEVFRALA
# B4: IFT52 (protein, UniProt Q9Y366 1-437)
# chain: MEKELRSTILFNAYKKEIFTTNNGYKSMQKKLRSNWKIQSLKDEITSEKLNGVKLWITAGPREKFTAAEFEILKKYLDTGGDVFVMLGEGGESRFDTNINFLLEEYGIMVNNDAVVRNVYHKYFHPKEALVSSGVLNREISRAAGKAVPGIIDEESSGNNAQALTFVYPFGATLSVMKPAVAVLSTGSVCFPLNRPILAFYHSKNQGGKLAVLGSCHMFSDQYLDKEENSKIMDVVFQWLTTGDIHLNQIDAEDPEISDYMMLPYTATLSKRNRECLQESDEIPRDFTTLFDLSIFQLDTTSFHSVIEAHEQLNVKHEPLQLIQPQFETPLPTLQPAVFPPSFRELPPPPLELFDLDETFSSEKARLAQITNKCTEEDLEFYVRKCGDILGVTSKLPKDQQDAKHILEHVFFQVVEFKKLNQEHDIDTSETAFQNNF
# B5: TTC30A (endogenous, untagged) (protein, UniProt Q86WT1 1-665)
# chain: MAGLSGAQIPDGEFTALVYRLIRDARYAEAVQLLGRELQRSPRSRAGLSLLGYCYYRLQEFALAAECYEQLGQLHPELEQYRLYQAQALYKACLYPEATRVAFLLLDNPAYHSRVLRLQAAIKYSEGDLPGSRSLVEQLLSGEGGEESGGDNETDGQVNLGCLLYKEGQYEAACSKFSATLQASGYQPDLSYNLALAYYSSRQYASALKHIAEIIERGIRQHPELGVGMTTEGFDVRSVGNTLVLHQTALVEAFNLKAAIEYQLRNYEVAQETLTDMPPRAEEELDPVTLHNQALMNMDARPTEGFEKLQFLLQQNPFPPETFGNLLLLYCKYEYFDLAADVLAENAHLTYKFLTPYLYDFLDALITCQTAPEEAFIKLDGLAGMLTEQLRRLTKQVQEARHNRDDEAIKKAVNEYDETMEKYIPVLMAQAKIYWNLENYPMVEKVFRKSVEFCNDHDVWKLNVAHVLFMQENKYKEAIGFYEPIVKKHYDNILNVSAIVLANLCVSYIMTSQNEEAEELMRKIEKEEEQLSYDDPNRKMYHLCIVNLVIGTLYCAKGNYEFGISRVIKSLEPYNKKLGTDTWYYAKRCFLSLLENMSKHMIVIHDSVIQECVQFLGHCELYGTNIPAVIEQPLEEERMHVGKNTVTDESRQLKALIYEIIGWNK
# B6: IFT46 (protein, UniProt Q9NQC8 1-304)
# chain: MADNSSDECEEENNKEKKKTSQLTPQRGFSENEDDDDDDDDSSETDSDSDDDDEEHGAPLEGAYDPADYEHLPVSAEIKELFQYISRYTPQLIDLDHKLKPFIPDFIPAVGDIDAFLKVPRPDGKPDNLGLLVLDEPSTKQSDPTVLSLWLTENSKQHNITQHMKVKSLEDAEKNPKAIDTWIESISELHRSKPPATVHYTRPMPDIDTLMQEWSPEFEELLGKVSLPTAEIDCSLAEYIDMICAILDIPVYKSRIQSLHLLFSLYSEFKNSQHFKALAEGKKAFTPSSNSTSQAGDMETLTFS
# B7: IFT81 (protein, UniProt Q8WYA0 1-676)
# chain: MSDQIKFIMDSLNKEPFRKNYNLITFDSLEPMQLLQVLSDVLAEIDPKQLVDIREEMPEQTAKRMLSLLGILKYKPSGNATDMSTFRQGLVIGSKPVIYPVLHWLLQRTNELKKRAYLARFLIKLEVPSEFLQDETVADTNKQYEELMEAFKTLHKEYEQLKISGFSTAEIRKDISAMEEEKDQLIKRVEHLKKRVETAQNHQWMLKIARQLRVEKEREEYLAQQKQEQKNQLFHAVQRLQRVQNQLKSMRQAAADAKPESLMKRLEEEIKFNLYMVTEKFPKELENKKKELHFLQKVVSEPAMGHSDLLELESKINEINTEINQLIEKKMMRNEPIEGKLSLYRQQASIISRKKEAKAEELQEAKEKLASLEREASVKRNQTREFDGTEVLKGDEFKRYVNKLRSKSTVFKKKHQIIAELKAEFGLLQRTEELLKQRHENIQQQLQTMEEKKGISGYSYTQEELERVSALKSEVDEMKGRTLDDMSEMVKKLYSLVSEKKSALASVIKELRQLRQKYQELTQECDEKKSQYDSCAAGLESNRSKLEQEVRRLREECLQEESRYHYTNCMIKNLEVQLRRATDEMKAYISSDQQEKRKAIREQYTKNTAEQENLGKKLREKQKVIRESHGPNMKQAKMWRDLEQLMECKKQCFLKQQSQTSIGQVIQEGGEDRLIL
# B8: IFT88 (endogenous) (protein, UniProt Q13099 1-824)
# chain: MMQNVHLAPETDEDDLYSGYNDYNPIYDIEELENDAAFQQAVRTSHGRRPPITAKISSTAVTRPIATGYGSKTSLASSIGRPMTGAIQDGVTRPMTAVRAAGFTKAALRGSAFDPLSQSRGPASPLEAKKKDSPEEKIKQLEKEVNELVEESCIANSCGDLKLALEKAKDAGRKERVLVRQREQVTTPENINLDLTYSVLFNLASQYSVNEMYAEALNTYQVIVKNKMFSNAGILKMNMGNIYLKQRNYSKAIKFYRMALDQVPSVNKQMRIKIMQNIGVTFIQAGQYSDAINSYEHIMSMAPNLKAGYNLTICYFAIGDREKMKKAFQKLITVPLEIDEDKYISPSDDPHTNLVTEAIKNDHLRQMERERKAMAEKYIMTSAKLIAPVIETSFAAGYDWCVEVVKASQYVELANDLEINKAVTYLRQKDYNQAVEILKVLEKKDSRVKSAAATNLSALYYMGKDFAQASSYADIAVNSDRYNPAALTNKGNTVFANGDYEKAAEFYKEALRNDSSCTEALYNIGLTYEKLNRLDEALDCFLKLHAILRNSAEVLYQIANIYELMENPSQAIEWLMQVVSVIPTDPQVLSKLGELYDREGDKSQAFQYYYESYRYFPCNIEVIEWLGAYYIDTQFWEKAIQYFERASLIQPTQVKWQLMVASCFRRSGNYQKALDTYKDTHRKFPENVECLRFLVRLCTDLGLKDAQEYARKLKRLEKMKEIREQRIKSGRDGSGGSRGKREGSASGDSGQNYSASSKGERLSARLRALPGTNEPYESSSNKEIDASYVDPLGPQIERPKTAAKKRIDEDDFADEELGDDLLPE
# Target: T1, Strep/FLAG-tagged LCA5
# Assay: affinity purification with mass spectrometry; Strep-Tactin Superflow on lysates of HEK293T Cas9 control, TTC30B KO and TTC30A/B KO cells transfected with Strep/FLAG-tagged LCA5 or IFT88 (Strep/FLAG-RAF1 as control); Strep elution buffer; label-free LC-MS/MS; four biological replicates
row,binding,Molecule
1,binds,IFT172 (from UniProt Q9UG01 1-1749)
2,binds,B1
3,binds,B2
4,binds,B3
5,binds,B4
6,binds,B5
7,binds,B6
8,binds,B7
9,binds,B8
